Results are given in words; binding and its absence hold for the method and conditions named. Binding seen in cells or lysates may run through a third protein. Some entries that bind do so weakly or less than the wild type.
Molecular target: β-arrestin 2 (rat (endogenous in primary alveolar macrophages)) (UniProt P29067)
Test: co-IP; anti-β-arrestin 2 (5 µg/ml) on Dynabeads; 100 µg lysate of rat AM (RIPA: 50 mM Tris-HCl, 150 mM NaCl, 1% NP-40, pH 8.0) overnight at 4°C; washed three times with PBS; Western analysis on TLR4; cells untreated or treated with LPS (100 ng/ml), SP-A (40 µg/ml) or both

Sequences of proteins named here, by UniProt entry; tags and fusion partners are left off.
UniProt P29067: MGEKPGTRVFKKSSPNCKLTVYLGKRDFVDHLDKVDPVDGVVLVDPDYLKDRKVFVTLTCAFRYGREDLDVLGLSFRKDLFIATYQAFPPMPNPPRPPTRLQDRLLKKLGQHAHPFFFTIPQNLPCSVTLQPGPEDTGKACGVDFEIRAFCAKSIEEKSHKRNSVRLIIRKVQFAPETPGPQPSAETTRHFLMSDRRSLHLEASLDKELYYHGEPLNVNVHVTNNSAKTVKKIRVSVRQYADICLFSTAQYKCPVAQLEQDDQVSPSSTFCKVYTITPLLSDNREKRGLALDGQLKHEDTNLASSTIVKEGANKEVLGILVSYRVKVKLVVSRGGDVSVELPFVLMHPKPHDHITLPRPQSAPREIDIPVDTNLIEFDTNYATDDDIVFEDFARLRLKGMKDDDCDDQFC

binding: binds
B1: TLR4 (receptor, UniProt Q9QX05 26-835)
chain: NPCIEVLPNITYQCMDQNLSKIPHDIPYSTKNLDLSFNPLKILRSYSFTNFSQLQWLDLSRCEIETIEDKAWHGLNQLSTLVLTGNPIKSFSPGSFSGLTNLENLVAVETKMTSLEGFHIGQLISLKKLNVAHNLIHSFKLPEYFSNLTNLEHVDLSYNYIQTISVKDLQFLRENPQVNLSLDLSLNPIDSIQAQAFQGIRLHELTLRSNFNSSNVLKMCLQNMTGLHVHRLILGEFKNERNLESFDRSVMEGLCNVSIDEFRLTYINHFSDDIYNLNCLANISAMSFTGVHIKHIADVPRHFKWQSLSIIRCHLKPFPKLSLPFLKSWTLTTNREDISFGQLALPSLRYLDLSRNAMSFRGCCSYSDFGTNNLKYLDLSFNGVILMSANFMGLEELEYLDFQHSTLKKVTEFSVFLSLEKLLYLDISYTNTKIDFDGIFLGLISLNTLKMAGNSFKDNTLSNVFTNTTNLTFLDLSKCQLEQISRGVFDTLYRLQLLNMSHNNLLFLDPSHYKQLYSLRTLDCSFNRIETSKGILQHFPKSLAVFNLTNNSVACICEYQNFLQWVKDQKMFLVNVEQMKCASPIDMKASLVLDFTNSTCYIYKTIISVSVVSVLVVATVAFLIYHFYFHLILIAGCKKYSRGESIYDAFVIYSSQNEDWVRNELVKNLEEGVPRFQLCLHYRDFIPGVAIAANIIQEGFHKSRKVIVVVSRHFIQSRWCIFEYEIAQTWQFLSSRSGIIFIVLEKVEKSLLRQQVELYRLLSRNTYLEWEDNALGRHIFWRRLKKALLDGKALNPDETSEEEQEATTLT

Reference: publication PMC3607558
